Results are given in words; binding and its absence hold for the method and conditions named. In cells and extracts the contact can be indirect. Here binding means that the protein was enriched with, or labelled near, the bait; the list need not be complete.

By UniProt entry, the sequences of proteins in these tests, tags left out.
UniProt O54833: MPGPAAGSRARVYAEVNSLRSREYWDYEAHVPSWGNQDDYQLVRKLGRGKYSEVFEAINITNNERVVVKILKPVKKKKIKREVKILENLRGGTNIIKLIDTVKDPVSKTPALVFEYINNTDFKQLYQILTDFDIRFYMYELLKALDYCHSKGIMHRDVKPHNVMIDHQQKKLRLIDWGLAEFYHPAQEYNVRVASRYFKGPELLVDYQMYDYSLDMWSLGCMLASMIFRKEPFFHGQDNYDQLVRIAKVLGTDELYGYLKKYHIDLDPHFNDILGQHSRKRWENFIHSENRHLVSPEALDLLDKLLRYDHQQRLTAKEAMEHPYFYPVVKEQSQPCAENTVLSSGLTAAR
UniProt P62631: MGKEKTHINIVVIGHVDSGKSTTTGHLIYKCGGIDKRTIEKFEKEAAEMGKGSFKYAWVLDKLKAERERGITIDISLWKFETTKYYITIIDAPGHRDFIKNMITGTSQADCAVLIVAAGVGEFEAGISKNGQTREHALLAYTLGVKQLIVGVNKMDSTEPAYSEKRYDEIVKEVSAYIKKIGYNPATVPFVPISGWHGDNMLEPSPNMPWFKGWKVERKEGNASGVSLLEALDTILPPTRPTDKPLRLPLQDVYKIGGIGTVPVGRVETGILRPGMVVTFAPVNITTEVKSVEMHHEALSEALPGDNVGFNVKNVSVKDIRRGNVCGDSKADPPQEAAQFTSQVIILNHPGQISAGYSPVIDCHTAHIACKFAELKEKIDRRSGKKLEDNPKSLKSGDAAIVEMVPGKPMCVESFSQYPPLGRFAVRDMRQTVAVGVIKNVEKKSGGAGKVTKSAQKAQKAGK
UniProt Q60737: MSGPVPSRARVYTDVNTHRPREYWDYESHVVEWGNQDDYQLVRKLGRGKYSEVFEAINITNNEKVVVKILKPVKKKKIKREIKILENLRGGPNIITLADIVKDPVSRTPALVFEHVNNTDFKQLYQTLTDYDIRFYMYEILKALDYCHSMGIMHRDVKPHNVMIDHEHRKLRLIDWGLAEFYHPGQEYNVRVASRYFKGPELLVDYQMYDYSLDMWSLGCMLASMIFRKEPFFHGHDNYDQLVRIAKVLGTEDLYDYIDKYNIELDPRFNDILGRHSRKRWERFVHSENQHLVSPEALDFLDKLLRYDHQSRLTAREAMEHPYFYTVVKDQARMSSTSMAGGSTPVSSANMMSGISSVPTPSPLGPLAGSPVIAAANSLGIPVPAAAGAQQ
UniProt Q9CW03: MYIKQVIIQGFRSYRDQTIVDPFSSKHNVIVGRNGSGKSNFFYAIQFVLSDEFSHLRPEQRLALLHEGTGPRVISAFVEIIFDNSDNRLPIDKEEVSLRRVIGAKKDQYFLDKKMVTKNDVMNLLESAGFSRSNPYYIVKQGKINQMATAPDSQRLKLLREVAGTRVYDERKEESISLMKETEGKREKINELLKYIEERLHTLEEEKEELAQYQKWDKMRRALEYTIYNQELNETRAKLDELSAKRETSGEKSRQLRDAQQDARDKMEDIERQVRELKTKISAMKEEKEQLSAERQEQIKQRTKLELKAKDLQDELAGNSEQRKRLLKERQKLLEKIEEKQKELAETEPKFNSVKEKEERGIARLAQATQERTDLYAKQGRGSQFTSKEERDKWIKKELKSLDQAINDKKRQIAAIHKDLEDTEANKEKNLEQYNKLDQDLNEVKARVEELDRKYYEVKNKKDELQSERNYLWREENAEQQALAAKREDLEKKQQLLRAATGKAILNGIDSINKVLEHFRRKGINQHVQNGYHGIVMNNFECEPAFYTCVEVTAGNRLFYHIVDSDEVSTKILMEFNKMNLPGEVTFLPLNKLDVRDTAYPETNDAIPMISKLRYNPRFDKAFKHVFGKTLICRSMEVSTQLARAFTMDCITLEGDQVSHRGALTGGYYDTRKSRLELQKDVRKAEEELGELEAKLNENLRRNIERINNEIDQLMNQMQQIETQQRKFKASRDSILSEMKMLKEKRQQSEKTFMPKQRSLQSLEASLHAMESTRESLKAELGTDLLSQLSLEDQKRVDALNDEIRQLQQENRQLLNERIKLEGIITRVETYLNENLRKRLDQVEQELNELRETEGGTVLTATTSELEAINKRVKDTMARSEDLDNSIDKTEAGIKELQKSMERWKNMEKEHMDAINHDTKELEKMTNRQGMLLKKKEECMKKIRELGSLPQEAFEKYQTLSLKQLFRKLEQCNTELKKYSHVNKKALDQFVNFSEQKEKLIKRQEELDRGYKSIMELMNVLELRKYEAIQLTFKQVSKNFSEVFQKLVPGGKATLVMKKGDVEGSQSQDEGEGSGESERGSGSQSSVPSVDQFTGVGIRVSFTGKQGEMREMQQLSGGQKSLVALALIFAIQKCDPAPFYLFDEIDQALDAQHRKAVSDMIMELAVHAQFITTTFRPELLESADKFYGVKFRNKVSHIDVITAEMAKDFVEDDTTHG
UniProt P10922: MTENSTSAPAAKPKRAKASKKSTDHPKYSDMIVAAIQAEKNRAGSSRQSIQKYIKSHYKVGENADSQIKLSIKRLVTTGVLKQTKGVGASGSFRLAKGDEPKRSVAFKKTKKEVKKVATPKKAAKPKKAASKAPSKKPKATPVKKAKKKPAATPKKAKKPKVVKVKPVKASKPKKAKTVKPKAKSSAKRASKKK
UniProt P50752: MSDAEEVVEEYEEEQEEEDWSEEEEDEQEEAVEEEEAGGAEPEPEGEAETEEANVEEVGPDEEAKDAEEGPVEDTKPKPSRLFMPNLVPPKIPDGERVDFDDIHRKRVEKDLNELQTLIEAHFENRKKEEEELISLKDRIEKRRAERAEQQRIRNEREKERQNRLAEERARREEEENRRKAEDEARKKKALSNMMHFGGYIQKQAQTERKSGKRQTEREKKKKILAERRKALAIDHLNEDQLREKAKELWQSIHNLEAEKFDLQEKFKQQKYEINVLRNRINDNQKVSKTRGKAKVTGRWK
UniProt Q7TPR4: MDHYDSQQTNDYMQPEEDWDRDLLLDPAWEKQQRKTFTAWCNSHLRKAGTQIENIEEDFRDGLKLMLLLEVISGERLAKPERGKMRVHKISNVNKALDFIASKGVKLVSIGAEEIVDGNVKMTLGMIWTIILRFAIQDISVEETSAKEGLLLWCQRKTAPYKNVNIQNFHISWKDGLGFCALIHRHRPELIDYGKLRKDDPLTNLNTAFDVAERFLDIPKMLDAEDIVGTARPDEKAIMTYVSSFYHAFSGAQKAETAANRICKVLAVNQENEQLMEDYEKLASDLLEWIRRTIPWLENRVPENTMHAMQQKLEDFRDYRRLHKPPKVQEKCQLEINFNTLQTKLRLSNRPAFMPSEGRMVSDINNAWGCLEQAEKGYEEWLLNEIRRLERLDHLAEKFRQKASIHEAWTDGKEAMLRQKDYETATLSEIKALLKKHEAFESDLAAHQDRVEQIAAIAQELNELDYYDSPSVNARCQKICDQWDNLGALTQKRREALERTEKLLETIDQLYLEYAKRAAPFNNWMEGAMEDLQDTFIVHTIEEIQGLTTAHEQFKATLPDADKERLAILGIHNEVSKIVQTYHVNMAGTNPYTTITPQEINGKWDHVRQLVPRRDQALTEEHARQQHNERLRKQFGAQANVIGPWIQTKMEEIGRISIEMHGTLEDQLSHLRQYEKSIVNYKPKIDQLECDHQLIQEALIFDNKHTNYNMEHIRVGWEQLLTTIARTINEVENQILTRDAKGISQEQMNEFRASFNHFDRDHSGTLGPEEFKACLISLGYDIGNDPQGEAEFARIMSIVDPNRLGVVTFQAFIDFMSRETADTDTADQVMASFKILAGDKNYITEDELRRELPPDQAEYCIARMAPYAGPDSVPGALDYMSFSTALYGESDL
UniProt Q62234: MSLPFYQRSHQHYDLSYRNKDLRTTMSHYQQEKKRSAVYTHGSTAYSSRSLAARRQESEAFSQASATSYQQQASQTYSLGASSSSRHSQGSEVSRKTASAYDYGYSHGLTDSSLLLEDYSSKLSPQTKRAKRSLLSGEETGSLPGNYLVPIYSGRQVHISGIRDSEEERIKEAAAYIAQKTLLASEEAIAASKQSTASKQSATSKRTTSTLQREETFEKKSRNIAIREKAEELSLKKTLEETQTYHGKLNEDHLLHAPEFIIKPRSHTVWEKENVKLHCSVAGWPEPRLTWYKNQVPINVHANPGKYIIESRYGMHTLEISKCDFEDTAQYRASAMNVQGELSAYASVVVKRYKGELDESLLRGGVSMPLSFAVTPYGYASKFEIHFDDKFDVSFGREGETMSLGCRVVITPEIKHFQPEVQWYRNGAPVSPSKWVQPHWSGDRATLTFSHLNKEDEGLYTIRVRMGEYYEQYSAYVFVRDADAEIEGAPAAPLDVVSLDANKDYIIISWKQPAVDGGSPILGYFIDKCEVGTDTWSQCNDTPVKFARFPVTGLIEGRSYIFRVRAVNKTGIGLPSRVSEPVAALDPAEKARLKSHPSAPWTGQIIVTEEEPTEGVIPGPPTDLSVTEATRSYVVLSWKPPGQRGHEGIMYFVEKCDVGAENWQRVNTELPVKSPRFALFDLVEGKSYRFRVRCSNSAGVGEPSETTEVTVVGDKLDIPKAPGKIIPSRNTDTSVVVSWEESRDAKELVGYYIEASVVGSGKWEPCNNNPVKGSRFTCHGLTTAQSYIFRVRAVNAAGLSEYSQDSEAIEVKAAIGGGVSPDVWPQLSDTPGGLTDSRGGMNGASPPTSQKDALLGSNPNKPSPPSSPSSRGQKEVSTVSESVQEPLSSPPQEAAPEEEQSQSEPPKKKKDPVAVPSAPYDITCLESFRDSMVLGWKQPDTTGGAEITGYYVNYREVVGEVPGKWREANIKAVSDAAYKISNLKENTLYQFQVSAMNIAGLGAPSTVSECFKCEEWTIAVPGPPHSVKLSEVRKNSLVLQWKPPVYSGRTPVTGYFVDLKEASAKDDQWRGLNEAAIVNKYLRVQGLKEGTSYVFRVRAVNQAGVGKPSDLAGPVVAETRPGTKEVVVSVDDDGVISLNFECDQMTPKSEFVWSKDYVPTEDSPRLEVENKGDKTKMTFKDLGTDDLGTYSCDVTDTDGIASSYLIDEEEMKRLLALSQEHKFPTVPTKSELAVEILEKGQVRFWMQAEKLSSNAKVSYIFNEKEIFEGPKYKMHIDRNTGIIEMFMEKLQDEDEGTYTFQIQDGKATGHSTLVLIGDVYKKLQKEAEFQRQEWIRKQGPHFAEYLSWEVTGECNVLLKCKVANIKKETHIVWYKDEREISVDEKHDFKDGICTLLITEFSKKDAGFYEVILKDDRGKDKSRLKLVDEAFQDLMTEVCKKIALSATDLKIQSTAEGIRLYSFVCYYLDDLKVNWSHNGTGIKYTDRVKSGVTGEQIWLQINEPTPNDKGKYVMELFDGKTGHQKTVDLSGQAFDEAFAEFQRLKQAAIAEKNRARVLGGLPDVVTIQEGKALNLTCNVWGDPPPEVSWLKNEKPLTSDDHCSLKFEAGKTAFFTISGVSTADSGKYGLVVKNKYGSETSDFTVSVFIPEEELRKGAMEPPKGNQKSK

The target of the first assay is casein kinase II subunit alpha (Csnk2a2) (mouse (endogenous in mouse heart)) (UniProt O54833). As to the kind of experiment: affinity purification with mass spectrometry; Co-IP from frozen mouse heart homogenate (three mice) with anti-Troponin T-C (CT3) or anti-CSNK2A2 antibody, IgG as negative control; lysis buffer 10 mM Hepes, 10 mM potassium chloride, 0.1% Triton X-100, pH 7.4; antibody-antigen incubation 18 h at 4 °C; elute against unbound fraction and IgG elute by DIA-MS (FDR <0.05, log2FC > 1).
Regarding Eef1a2 (from UniProt P62631 1-463), the binding entry is on record as “binds”.

Regarding “Csnk2a1 (from UniProt Q60737 1-391) (enzyme)”, the binding result is listed as “binds”.

In the case of Smc3 (from UniProt Q9CW03 1-1217), the binding result is recorded as “binds”. On the same count and under the same terms, as for H1-0 (from UniProt P10922 1-194), the entry is “binds”.

Another assay concerns the target cardiac troponin T (Tnnt2) (mouse (endogenous in mouse heart)) (UniProt P50752). Described as above.
Regarding Macf1 (from UniProt Q9QXZ0 1-7354), the binding entry was “binds”. Consider Actn1 (from UniProt Q7TPR4 1-892), for which the binding result was “binds”. Still for that read-out and setting: as for Myom1 (from UniProt Q62234 1-1667), the entry is “binds”.

For the origin of these results see publication PMC12019842.
